Assay results from patent US20250388667A1.
No constants are given. Whether binding was seen depends on the method and setting. Some results given as binding are weak or reduced against the parent protein; the word gives no strength.

Assays:
[1] = target: monkey cNectin-4 protein (ACRO, NE4-C52H4) (cynomolgus monkey); test: ELISA, antigen coated, HRP-labeled anti-human-Kappa secondary antibody
[2] = target: T1, mouse mNectin-4 protein (ACRO, NE4-M52H3) (mouse) (UniProt Q8R007); test: as above
T1 sequence (looked up): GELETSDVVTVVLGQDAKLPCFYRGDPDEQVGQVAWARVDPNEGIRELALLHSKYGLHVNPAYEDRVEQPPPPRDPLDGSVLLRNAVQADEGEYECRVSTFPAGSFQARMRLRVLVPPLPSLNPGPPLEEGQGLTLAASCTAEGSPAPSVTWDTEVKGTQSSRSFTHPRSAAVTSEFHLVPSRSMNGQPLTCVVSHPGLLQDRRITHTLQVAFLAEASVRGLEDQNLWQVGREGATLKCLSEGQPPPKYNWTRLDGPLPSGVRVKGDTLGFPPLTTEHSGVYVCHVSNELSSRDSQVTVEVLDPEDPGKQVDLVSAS

[3] = target: T1, mouse mNectin-4 protein (ACRO, NE4-M52H3) (mouse); test: ELISA, antigen coated

binding [1]: binds | binding [2]: binds | binding [3]: binds
B1: reference antibody ASG-22 (antibody, human IgG1, kappa, V domains shown)
VH: EVQLVESGGGLVQPGGSLRLSCAASGFTFSSYNMNWVRQAPGKGLEWVSYISSSSSTIYYADSVKGRFTISRDNAKNSLSLQMNSLRDEDTAVYYCARAYYYGMDVWGQGTLVTVSS
VL: DIQMTQSPSSVSASVGDRVTITCRASQGISGWLAWYQQKPGKAPKFLIYAASTLQSGVPSRFSGSGSGTDFTLTISSLQPEDFATYYCQQANSFPPTFGGGTKVEIKR
